# Reference: the supplement of paper PMC5770031
# The other results are listed elsewhere or left out. Single values are uncertain here, since repeats match poorly.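 ATM8/balancer (normal ATM) heterozygous flies were crossed on treated food; parents laid eggs 5–6 days, offspring developed ~12 days, so parents and larvae ingested compound. Readout: fraction of emerged adults homozygous for ATM8 versus 2% DMSO controls. Compounds were neutral at 10–20% homozygotes, harmful below 10%, helpful above 20%.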
# System: Drosophila melanogaster ATM8 (temperature-sensitive ATM allele)
# Assay: fraction of eclosed F1 progeny that are homozygous ATM8 (rescue of developmental lethality); higher = more rescue of ATM8 developmental lethality; extreme values may be limits of the assay
# Conditions: compound concentration applied to food 0.2 mM; 21 °C
row,Structure (SMILES),fraction of eclosed F1 progeny that are homozygous ATM8
1,C1CNCCN1,0.148
2,COc1c2occc2c(OC)c2c(=O)cc(C)oc12,0.0556
3,CC[C@H](C)C(=O)O[C@H]1CCC=C2C=C[C@H](C)[C@H](CC[C@@H]3C[C@@H](O)CC(=O)O3)[C@H]21,0.128
4,Nc1cc(C(Cl)=C(Cl)Cl)c(S(N)(=O)=O)cc1S(N)(=O)=O,0.385
5,c1cncc(C2=NCCC2)c1,0.08
6,C[C@H](CCC(=O)O)[C@H]1CC[C@H]2[C@@H]3[C@H](O)C[C@@H]4C[C@H](O)CC[C@]4(C)[C@H]3CC[C@]12C,0.0476
7,NCC(O)CC(=O)O (stereo not given),0.0263
8,O=C(/C=C/c1ccc(O)c(O)c1)OCCc1ccccc1,0.125
9,NNc1nncc2ccccc12,0
10,CC(=O)OCC(CCn1cnc2cnc(N)nc21)COC(C)=O,0.333
11,CN(C)[C@@H]1C(O)=C(C(=O)NCN2CCCC2)C(=O)[C@@]2(O)C(O)=C3C(=O)c4c(O)cccc4[C@@](C)(O)[C@H]3C[C@@H]12,0.128
12,O=S(=O)([O-])NC1CCCCC1.[Na+],0.0893
13,Cc1c(N(C)CS(=O)(=O)O)c(=O)n(-c2ccccc2)n1C,0.0507
14,COc1cc2c3cc1Oc1c(OC)c(OC)cc4c1[C@@H](Cc1ccc(O)c(c1)Oc1ccc(cc1)C[C@@H]3N(C)CC2)N(C)CC4,0.179
15,CC(NCCC(c1ccccc1)c1ccccc1)c1ccccc1 (stereo not given),0.0638
16,CC(=O)Oc1ccc2c(C)cc(=O)oc2c1,0.0698
17,CCc1cn([C@H]2C[C@H](O)[C@@H](CO)O2)c(=O)[nH]c1=O,0.0331
18,O=S(=O)(O)NC1CCCCC1,0.141
19,C[C@]12CC[C@@H]3c4ccc(OC(=O)N(CCCl)CCCl)cc4CC[C@H]3[C@@H]1CC[C@@H]2O,0.125
20,C[C@@H]1O[C@@H](O[C@H]2[C@H](Oc3cc(O)c4c(=O)cc(-c5ccc(O)cc5)oc4c3)O[C@H](CO)[C@@H](O)[C@@H]2O)[C@H](O)[C@H](O)[C@H]1O,0.18

# Structures shown so far that contain a Cl atom:
row,Structure (SMILES),fraction of eclosed F1 progeny that are homozygous ATM8
4,Nc1cc(C(Cl)=C(Cl)Cl)c(S(N)(=O)=O)cc1S(N)(=O)=O,0.385
19,C[C@]12CC[C@@H]3c4ccc(OC(=O)N(CCCl)CCCl)cc4CC[C@H]3[C@@H]1CC[C@@H]2O,0.125

# Further results follow.

row,Structure (SMILES),fraction of eclosed F1 progeny that are homozygous ATM8
1,CCN(CC)CCc1nc(-c2ccccc2)no1,0.182
2,Cc1nccc2c1[nH]c1ccccc12,0.115
3,C[C@H]1C[C@@H]2[C@H]([C@@H](O)C[C@@]3(C)[C@H]2CC[C@]3(O)C(=O)CO)[C@@]2(C)C=CC(=O)C=C12,0.275
4,C[C@]12C=CC(=O)C=C1CC[C@@H]1[C@@H]2CC[C@]2(C)C(=O)CC[C@@H]12,0.29
5,CCCNCC(O)COc1ccccc1C(=O)CCc1ccccc1 (stereo not given),0.247
6,COc1cc([C@@H]2c3cc4c(cc3[C@@H](O[C@@H]3O[C@@H]5CO[C@@H](C)O[C@H]5[C@H](O)[C@H]3O)[C@H]3COC(=O)[C@H]23)OCO4)cc(OC)c1O,0.224
7,COc1ccccc1OCC(O)CN1CCN(CC(=O)Nc2c(C)cccc2C)CC1 (stereo not given),0.21
8,O=[N+]([O-])c1cccc2cn[nH]c12,0.208
9,CC(=O)CC1CCCCN1 (stereo not given),0.235
10,CC(=O)Oc1ccc2c(c1)CCC1C2CC[C@]2(C)C(=O)CCC12 (stereo not given in full),0.122
11,CC(=O)O[C@@H]1C[C@@]23C[C@@]24CC[C@H](O[C@@H]2OC[C@@H](O)[C@H](O)[C@H]2O)C(C)(C)[C@@H]4CC[C@H]3[C@]2(C)C[C@@H]3O[C@]4(C[C@@H](C)[C@@H]3[C@@]12C)O[C@H](O)[C@@]1(C)O[C@@H]41,0.125
12,CN(C)c1nc(N(C)C)nc(N(C)C)n1,0.0787
13,N[C@@H](Cc1ccccc1)C(=O)O,0.0444
14,CC[C@@]1(O)C[C@H](O[C@H]2C[C@H](N(C)C)[C@H](O)[C@H](C)O2)c2c(cc3c(c2O)C(=O)c2c(O)ccc(O)c2C3=O)[C@H]1C(=O)OC,0.107
15,CC(=O)O[C@]1(C(C)=O)CC[C@H]2[C@@H]3C[C@H](C)C4=CC(=O)CC[C@]4(C)[C@H]3CC[C@@]21C,0.0476
16,CC(C)NCC(O)c1ccc2ccccc2c1 (stereo not given),0.311
17,NCC(=O)NCC(=O)O,0.102
18,Cc1c(O)c(=O)ccn1C,0.121
19,O=[N+]([O-])c1cc([As](=O)(O)O)ccc1O,0.121
20,O=C1C[C@@H](c2ccc(O)cc2)Oc2cc(O)cc(O)c21,0.208

row,Structure (SMILES),fraction of eclosed F1 progeny that are homozygous ATM8
1,CCC(=O)O[C@]1(C(=O)CCl)[C@@H](C)C[C@H]2[C@@H]3CCC4=CC(=O)C=C[C@]4(C)[C@@]3(F)[C@@H](O)C[C@@]21C,0.102
2,c1ccc([C@H]2CN3CCSC3=N2)cc1,0.0853
3,CC(C)[C@H](N)C(=O)OCC(CO)OCn1cnc2c(=O)nc(N)[nH]c21 (stereo not given in full),0.0448
4,NC(=O)c1ccc([N+](=O)[O-])cc1Cl,0.143
5,O=C1OCCN1/N=C/c1ccc([N+](=O)[O-])o1,0.128
6,O=C(/C=C/C(=O)Oc1ccccc1C(=O)O)Oc1ccccc1C(=O)O,0.175
7,COc1ccc(-c2coc3cc(OC)cc(OC)c3c2=O)cc1,0.0247
8,O=c1c(O)c(-c2ccccc2)oc2cc(O)ccc12,0.111
9,COc1ccc(C2CNC(=O)C2)cc1OC1CCCC1 (stereo not given),0.152
10,O=c1c(O)c(-c2ccc(O)cc2O)oc2cc(O)cc(O)c12,0.0638
11,OC[C@H]1O[C@@H](Oc2cc(O)cc(/C=C/c3ccc(O)cc3)c2)[C@H](O)[C@@H](O)[C@@H]1O,0.143
12,COc1cc(-c2coc3cc(O[C@@H]4O[C@H](CO)[C@@H](O)[C@H](O)[C@H]4O)c(OC)c(O)c3c2=O)cc(O)c1OC,0.13
13,CCCCCCCCCCC[C@@H](C[C@@H]1OC(=O)[C@H]1CCCCCC)OC(=O)[C@H](CC(C)C)NC=O,0.0635
14,CC(=O)N[C@@H](CC(=O)O)C(=O)O,0.15
15,O=C1O[C@H](CO)[C@@H](O)[C@H](O)[C@H]1O,0.068
16,COc1cc(C/C=C/c2ccccc2)c(OC)cc1O,0.207
17,COc1ccc(-c2oc3ccccc3c(=O)c2OC)cc1,0.2
18,CC1(C)C(=O)C=C[C@@]2(C)C1=C(O)C(=O)[C@]1(C)[C@@H]2CC[C@@]2(C)[C@H](c3ccoc3)C[C@H]3O[C@]321,0
19,CO[C@H]1C[C@H](O[C@H]2[C@H](C)[C@@H](O[C@@H]3O[C@H](C)C[C@H](N(C)C)[C@H]3OC(C)=O)[C@@H](C)C[C@@]3(CO3)C(=O)[C@H](C)[C@@H](OC(C)=O)[C@@H](C)[C@@H](C)OC(=O)[C@@H]2C)O[C@@H](C)[C@@H]1OC(C)=O,0.075
20,O=C(O)CCCN1C(=O)c2cccc3cccc(c23)C1=O,0.118
